From ChEMBL document CHEMBL3988442, “University of Dundee, Small-Polar-MMV Screening Library” (2021).

The filed quantity is “Percent Effect” (%).
How 0% and 100% were set is not recorded. Most values in the screen are low, and negative values occur.
This is an unselected part of the compounds tested.
Two or more numbers in one place are separate tests of the same structure; such repeats can differ widely.

Mtb cholesterol medium: 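Growth of Mycobacterium tuberculosis over 4 days (cholesterol / DPPC medium with tyloxapol); the read-out is not stated. Tested at 50 µM. Higher reads as more growth inhibition (inferred: compounds with an IC50 in retests scored well above the rest). Size under these conditions: about 69,000 compounds, about 370 of them at 50% or above in at least one test.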
Mtb glucose medium: 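Whole-cell growth test on Mycobacterium tuberculosis, read after 3 days in glucose-containing 7H9 medium; the read-out is not stated. Tested at 50 µM. Direction is inferred from retests: higher values go with more growth inhibition. Of about 69,000 compounds tested this way, about 760 (1.1%) reached 50% or more in at least one test.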

SMILES	Mtb cholesterol medium	Mtb glucose medium
Cc1cnc(-c2nc(O)c3c(n2)CN(C(=O)C2CC2)CC3)cn1	3.853	-16.26
CC(C)C(CNC(=O)NCc1cc[nH]n1)N1CCOCC1 (stereo unspecified)	13.54	24.99
CN1CCN(C(=O)C2(S(C)(=O)=O)CCCC2)Cc2ccccc21	12.01	-1.224 and 3.877
CNc1nc2c(s1)C(c1cc(Cl)ccc1F)CC(=O)N2 (stereo unspecified)	0.4807	27.4
Cc1nc(CC(=O)N2CCC(c3nn(C)c4ncccc34)CC2)cs1.Cl	-2.111	13.98
CN1CCC(N(C)C(=O)Nc2ccc(Cl)cc2)CC1	-17.49	3.417 and 11.87
Clc1ccccc1CCN1CCN(c2ccc3nncn3n2)CC1	21.82	50.51
COc1cc(N2CCC3(CC2)CN(CCO)c2ccccc23)ncn1	7.1	21.89
O=C(CCS(=O)(=O)C1CCCC1)N1CCCC1c1ccsc1 (stereo unspecified)	-19.91	-20.87
CCc1ccc(CN2CCCC(c3nn(C)c(=O)n3CC)C2)nc1 (stereo unspecified)	-9.344	-24.11 and -1.772
O=C(c1cscn1)N1CCc2ncnc(-c3ccncc3)c2CC1	-23.67	-46.35
CC(C)CC(NC(=O)c1ccn(C)c(=O)c1)c1cccs1 (stereo unspecified)	-0.8286	11.97
COCCCn1ccc(NC(=O)NCCn2ccnc2)n1	-7.345	0.1713
O=C(O)c1c(Cl)ncn1-c1cccc2ccccc12	-1.006	1.885
CNS(=O)(=O)CC(=O)N1CCCc2cc(C(C)C)ccc21	-1.428	-0.5188
O=C(NCC1CC1)C1CN(C(=O)c2cccc(Cl)c2)CC12CCOCC2 (stereo unspecified)	-28.74	-45.31
COCCCC1(CO)CCCN(CCc2ccccn2)C1 (stereo unspecified)	-20.92 and 3.509	-22.01
CCCS(=O)(=O)NC(=O)c1cc(C)n(-c2ccccc2)n1	-14.39	24.99 and 6.507
Cc1ccc(CC2CCCN2CC(=O)NCc2ccccn2)cc1 (stereo unspecified)	-7.862	20.05 and 15.46
Cc1noc(C)c1CN1CCOC2(CCCN(c3ncccn3)C2)C1.O=C(O)C(F)(F)F (stereo unspecified)	-7.35	-3.377 and 21.13
CCC(O)(CNCc1ncc[nH]1)c1ccc(Br)cc1 (stereo unspecified)	29.51	16.48
COc1ccc(C(=O)NC2COc3ccccc3C2)cc1OCC(=O)O (stereo unspecified)	-3.912	42.86 and -12.37
CCOc1ccc(N2CCCN=C2NC(=O)c2ccccc2C)cc1	-26.83	-30.87
O=C(c1cnc(C2CC2)nc1)N1CCCC(c2nccs2)C1 (stereo unspecified)	60.36 and 26.23	6.685
COC(=O)C1CCN(C(=O)c2cc(Br)ccc2-n2cnnn2)CC1	-3.574	-7.712
COc1ccc2c3c1CN(C(=O)N(C)C)CC3=CC(C)(C)CO2	12.14	13.12
CCS(=O)(=O)c1ccc(N2CCC(NC(=O)NC(C)CO)CC2)cc1 (stereo unspecified)	12.86	1.453
[H][C@@]12CCN(Cc3scnc3C)C[C@]1(C(=O)N1CCCC1)CCO2	-7.115 and -25.99	-3.88 and 18.57
O=C(O)C(F)(F)F.[H][C@@]12CCCO[C@]1([H])[C@@H](Oc1cccnc1)CN2S(=O)(=O)N(C)C	-2.317	-10.01
Cc1nnsc1C(=O)NCCNS(=O)(=O)c1cccs1	-20.96	-4.286
CCn1nc(Br)nc1Sc1ccccc1NC(C)=O	8.9	22.2
Cn1cc(C(=O)Nc2ccnc(Oc3ccccc3)c2)ccc1=O	-16.81	-3.922
COCCOCC(=O)NC(C#N)c1cc(Cl)cc(Cl)c1 (stereo unspecified)	2.606	-23.44
O=C(O)C(F)(F)F.[H][C@@]12COC[C@H](NS(C)(=O)=O)[C@]1([H])CN(Cc1ccc(C)s1)C2	-7.189	5.44
CCC1CCCCCN1C(=O)c1ccc(N2CCC(O)CC2)cc1 (stereo unspecified)	5.994	16.91
O=C(NCc1ccccc1CN1CCCC1=O)Nc1nccs1	-3.34	22.6
Cc1c(C(=O)NS(=O)(=O)c2ccc(F)cc2)cnn1CC(C)C	2.741	18.89
Cc1n[nH]c(C2CN(CC(=O)NCCc3ccc(F)cc3)CCO2)n1 (stereo unspecified)	0.374	-65.25
O=C(NCC(Cc1cccc(F)c1)N1CCCC1=O)c1ccc[nH]c1=O (stereo unspecified)	-18.29	-20.23
CCCn1nnc(NCc2ccccc2OCc2ccc(Cl)cc2)n1	46.32	51.82
Cc1cc(NC2CCN(Cc3ccccn3)CC2)n2nc(C)c(C)c2n1	-21.24	12.38
CC(=O)N(C)CC(=O)Nc1cccc(N2CCN(CC3CC3)CC2)c1	4.409	13.67
CCS(=O)(=O)NCc1cc(Br)c(OC)c(OC)c1	-0.7773	21.57
CCCN(Cc1ccccc1O)C(=O)Nc1cnn(CCOC)c1	3.465	26.01 and -4.316
Cc1cccc(C)c1Nc1noc2c1CN(C(=O)c1cn(C)cn1)CC2	-16.89 and -23.92	-20.39
O=C1NC(c2cnc(C3CCC3)s2)Nc2ncccc21 (stereo unspecified)	-4.964	-4.661
Cc1ccc2c(c1)C(NC(=O)N(C)C)CC21CCN(CC2CC2)CC1.O=C(O)C(F)(F)F (stereo unspecified)	-9.565	-13.71
CN1CCC(c2nc3ccc(-c4cccc(F)c4)cn3n2)CC1.O=C(O)C(F)(F)F	13.67	26.23
CN1CCN(CCCN(C)S(=O)(=O)C2CCCCC2)CC1	-3.986 and 0.1027	13.53 and 3.216

Once more, the final 3:

Cc1ccc2c(c1)C(NC(=O)N(C)C)CC21CCN(CC2CC2)CC1.O=C(O)C(F)(F)F (stereo unspecified) read Mtb cholesterol medium: -9.565%; Mtb glucose medium: -13.71%.
CN1CCC(c2nc3ccc(-c4cccc(F)c4)cn3n2)CC1.O=C(O)C(F)(F)F read Mtb cholesterol medium: 13.67%; Mtb glucose medium: 26.23%.
CN1CCN(CCCN(C)S(=O)(=O)C2CCCCC2)CC1 read Mtb cholesterol medium: -3.986% and 0.1027%; Mtb glucose medium: 13.53% and 3.216%.